Measured values: PubChem BioAssay AID1347423 (Functional Genomics Laboratory (NCATS/FGL), 2020)
Among all 52,000 sequences or so, about 210 (0.4%) were called active.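 Rule for the calls: active = gene whose silencing raises cell survival under the drug, median off-target-corrected z-score across its silencing RNAs 2 or more; inactive = the rest.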 Some of the results follow.

assay: Resistance to Poly (ADP-Ribose) Polymerase inhibitor: Gene Identification via Genome-wide siRNA Screen; conditions: mouse BRCA2 R2336H ES cells, olaparib, CellTiter-Glo viability; hits give high values
Procedure, shortened: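 Genome-wide siRNA screen (3 siRNAs/gene, 20 nM) in mouse ES cells carrying hypomorphic BRCA2 R2336H; olaparib 500 nM added 48 h post-transfection, CellTiter-Glo viability 72 h later. Normalized to plate-median negative control; MAD z-scores, gene median, seed-adjusted.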

Sequence | z-score
GCCAUUCUAAGCUGCCAAATT against BC025519 | inactive: 0.691
GCAUGAUGCUGAGACAAGATT against Sprrl1 | inactive: -0.0479
AAAGAAACUAGAGAGAGCATT against LOC434320 | inactive: 0.388
GGGCUAUGUCCACAGCUUUTT against Il27 | inactive: -1.11
GGAUGAGUUUCAGAACAGUTT against Ifit2 | inactive: 1.68
GGAGAGACCACCCUUUCAGTT against B430104H02Rik | inactive: 1.01
CCGAGAACAGUUGAAGAAGTT against D530025C17Rik | inactive: 0.272
GGUACUGGCAUGGUGACAATT against Mmp11 | inactive: -1.69
GGCUGAAUAGUCCUAGCAGTT against 2010004J24Rik | inactive: 2.3
CCCUAAAUCCAAAAAGGGCTT against F730038I15Rik | inactive: 0.657
GGCUUCCUAAGGGAUAAGATT against Slc16a11 | inactive: -0.4
CUCUGCUUUUUUCCUGUGCTT against D130007C19Rik | inactive: -1.26
GGAACAGAGAAGCUACUAATT against Ddx3x | inactive: -2.93
GGCAGAUCUUGCUGACAUCTT against Cml2 | inactive: -2.4
GGUAAAUUACCCAAAGGUATT against Mkl1 | inactive: -1.17
CCGGGUCAAGUUGGUCAACTT against Ascl1 | inactive: 1.49
GGCCUUGUUAACAGAACAUTT against Sgol2 | inactive: -0.858
GGACCUUUAAAGCUAAGCUTT against Wisp2 | inactive: -0.199
GGUUUUCUAGUUUGAGUUUTT against Atp1b2 | inactive: 0.538
GGUGAACAGAUCGCCAUCATT against Ikbkb | inactive: -1.3
CCAAUUGGAAUCCCAUUUUTT against Cd47 | inactive: 1.28
GGCUUUCUUCAACCUGAGUTT against BC019755 | inactive: 0.218
CCCACUAUCAACACUGGUATT against Gm609 | inactive: 1.87
GCCAAUAGCAUCUGUGGACTT against Olfr566 | inactive: 0.361
CGAGUCAAGUGUGUGAACGTT against Ascl3 | inactive: 0.946
GCAUGGUAGUUCUUUAGCATT against Xcr1 | inactive: -0.258
GCAGCAAUCAGAUCAUGUATT against Gm1631 | inactive: 1.31
GGUAUAUGGCCAUUAUCGATT against Tacr3 | inactive: 0.0356
GGAAAAAGAUGGAAGAAUUTT against Thoc1 | inactive: -2.48
